Results are given in words; binding and its absence hold for the method and conditions named. In cells and extracts the contact can be indirect. These calls come from enrichment with a bait or labelling near it, and not all partners need be listed.

Binding data for two molecules are collected here from publication PMC12472984.

This test has as its target Recombinant His-tagged P8 protein (Lactobacillus rhamnosus KCTC 12202BP). The experiment in a line: affinity purification with mass spectrometry; His-tagged P8 held on Ni2+-NTA resin, incubated with soluble DLD-1 lysate for 24 h at 4 °C, washed with PBS, eluted with 20 mM HEPES pH 7.5, 150 mM NaCl, 300 mM imidazole; SDS-PAGE, in-gel trypsin digestion, LC-MS/MS; overlap of three independent experiments; resin without P8 as negative control; only the target purified.

B1: Sentrin-specific protease 2 (protein, UniProt Q9HC62 1-589)
chain: MYRWLVRILGTIFRFCDRSVPPARALLKRRRSDSTLFSTVDTDEIPAKRPRLDCFIHQVKNSLYNAASLFGFPFQLTTKPMVTSACNGTRNVAPSGEVFSNSSSCELTGSGSWNNMLKLGNKSPNGISDYPKIRVTVTRDQPRRVLPSFGFTLNSEGCNRRPGGRRHSKGNPESSLMWKPQEQAVTEMISEESGKGLRRPHCTVEEGVQKEEREKYRKLLERLKESGHGNSVCPVTSNYHSSQRSQMDTLKTKGWGEEQNHGVKTTQFVPKQYRLVETRGPLCSLRSEKRCSKGKITDTETMVGIRFENESRRGYQLEPDLSEEVSARLRLGSGSNGLLRRKVSIIETKEKNCSGKERDRRTDDLLELTEDMEKEISNALGHGPQDEILSSAFKLRITRGDIQTLKNYHWLNDEVINFYMNLLVERNKKQGYPALHVFSTFFYPKLKSGGYQAVKRWTKGVNLFEQEIILVPIHRKVHWSLVVIDLRKKCLKYLDSMGQKGHRICEILLQYLQDESKTKRNSDLNLLEWTHHSMKPHEIPQQLNGSDCGMFTCKYADYISRDKPITFTQHQMPLFRKKMVWEILHQQLL
On to B1, for which the binding entry is recorded as “binds”.

B2: F-box only protein 21 (protein, UniProt O94952 1-628)
chain: MAAAAVDSAMEVVPALAEEAAPEVAGLSCLVNLPGEVLEYILCCGSLTAADIGRVSSTCRRLRELCQSSGKVWKEQFRVRWPSLMKHYSPTDYVNWLEEYKVRQKAGLEARKIVASFSKRFFSEHVPCNGFSDIENLEGPEIFFEDELVCILNMEGRKALTWKYYAKKILYYLRQQKILNNLKAFLQQPDDYESYLEGAVYIDQYCNPLSDISLKDIQAQIDSIVELVCKTLRGINSRHPSLAFKAGESSMIMEIELQSQVLDAMNYVLYDQLKFKGNRMDYYNALNLYMHQVLIRRTGIPISMSLLYLTIARQLGVPLEPVNFPSHFLLRWCQGAEGATLDIFDYIYIDAFGKGKQLTVKECEYLIGQHVTAALYGVVNVKKVLQRMVGNLLSLGKREGIDQSYQLLRDSLDLYLAMYPDQVQLLLLQARLYFHLGIWPEKSFCLVLKVLDILQHIQTLDPGQHGAVGYLVQHTLEHIERKKEEVGVEVKLRSDEKHRDVCYSIGLIMKHKRYGYNCVIYGWDPTCMMGHEWIRNMNVHSLPHGHHQPFYNVLVEDGSCRYAAQENLEYNVEPQEISHPDVGRYFSEFTGTHYIPNAELEIRYPEDLEFVYETVQNIYSAKKENIDE
Take B2: the binding entry was “binds”.
